The text below walks through data of US8592466B2, “Methods for treating conditions caused by higher-than-normal dopaminergic activity in basal ganglia” (Neuropill, Inc., priority 2008, dated 2013).

The subject of this data set is DA release in striatum. In words: [11C]-raclopride PET binding potential. The format is in vivo, humans. Here is the method:
The Positron Emission Tomography (PET) scans were performed at the PET Center of Johns Hopkins University at Johns Hopkins Hospital, Baltimore, Md. During the PET scans three plasma samples of RPR 102681 were obtained from each subject under different dosing to measure RPR 102681 plasma concentration.
Each subject was also studied using Magnetic Resonance Imaging (MRI). Each subject received an individual thermoplastic mask molded to their face to allow for repositioning and stabilizing of the head during the MRI procedure and PET scan later. Marks, which localized the anatomical structures of interest, were placed on the mask following the MRI scan. […]
[^11C]-raclopride PET scans were preformed on days 6, 13, 20 and 27. […] To measure the specific binding of tracer, binding potential (BP) images were generated by a simplified reference model with a linear regression algorithm (Using a reference tissue model with spatial constraint to quantify [^11C] Pittsburgh compound B PET for early diagnosis of Alzheimer's disease, Yun Zhou, Susan M. Resnick, Weiguo Ye, Hong Fan, Daniel P. Holt, William E. Klunk, Chester A. Mathis, Robert Dannals, and Dean F. Wonga, NeuroImage 36 (2007) 298-312). […]

With `CC(C(=O)O)c1cccc(NC(=O)NCC(=O)N2C(C(=O)OC(C)(C)C)CSC2c2ccccc2F)c1` [RPR 102681, (2S)-2-{3-[3-({[(2R,4R)-4-tert-Butoxycarbonyl-2-(2-fluorophenyl)]-3-thiazolidinyl}carbonylmethyl)ureido]phenyl}propionic acid], the “% BP change vs RPR 102681 plasma concentration” value reads like this: (Dosing Schedule A) “no significant relationship”; (Dosing Schedule B) “no significant correlation”.
